# In PubChem BioAssay AID1117319 (Southern Research Institute, 2015):
# By UniProt entry, the sequences of proteins in these tests, tags left out. Where a name states a change or a piece, a line headed by the entry shows the natural chain unless it says otherwise.
# UniProt P69720: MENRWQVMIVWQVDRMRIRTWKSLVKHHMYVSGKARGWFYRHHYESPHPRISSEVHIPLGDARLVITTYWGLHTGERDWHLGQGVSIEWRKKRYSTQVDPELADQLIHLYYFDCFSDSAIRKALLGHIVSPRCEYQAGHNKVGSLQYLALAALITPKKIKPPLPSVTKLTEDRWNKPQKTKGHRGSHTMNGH
# UniProt P69721: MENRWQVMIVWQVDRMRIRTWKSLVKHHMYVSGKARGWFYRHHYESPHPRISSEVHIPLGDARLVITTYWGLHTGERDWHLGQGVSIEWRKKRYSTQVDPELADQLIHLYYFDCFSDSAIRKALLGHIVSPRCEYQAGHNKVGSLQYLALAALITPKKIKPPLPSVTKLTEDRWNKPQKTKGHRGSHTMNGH
# UniProt P69722: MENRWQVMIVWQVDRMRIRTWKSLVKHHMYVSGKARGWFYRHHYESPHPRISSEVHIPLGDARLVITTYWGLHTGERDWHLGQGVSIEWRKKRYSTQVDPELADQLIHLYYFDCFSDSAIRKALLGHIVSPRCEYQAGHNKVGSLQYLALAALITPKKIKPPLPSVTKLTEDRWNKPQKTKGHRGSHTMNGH
# UniProt P69723: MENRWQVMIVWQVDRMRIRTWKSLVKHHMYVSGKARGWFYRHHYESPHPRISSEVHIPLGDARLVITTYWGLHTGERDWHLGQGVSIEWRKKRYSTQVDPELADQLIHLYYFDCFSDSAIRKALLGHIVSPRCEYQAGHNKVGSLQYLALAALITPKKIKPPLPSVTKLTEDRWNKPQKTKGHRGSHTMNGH
# UniProt Q9HC16: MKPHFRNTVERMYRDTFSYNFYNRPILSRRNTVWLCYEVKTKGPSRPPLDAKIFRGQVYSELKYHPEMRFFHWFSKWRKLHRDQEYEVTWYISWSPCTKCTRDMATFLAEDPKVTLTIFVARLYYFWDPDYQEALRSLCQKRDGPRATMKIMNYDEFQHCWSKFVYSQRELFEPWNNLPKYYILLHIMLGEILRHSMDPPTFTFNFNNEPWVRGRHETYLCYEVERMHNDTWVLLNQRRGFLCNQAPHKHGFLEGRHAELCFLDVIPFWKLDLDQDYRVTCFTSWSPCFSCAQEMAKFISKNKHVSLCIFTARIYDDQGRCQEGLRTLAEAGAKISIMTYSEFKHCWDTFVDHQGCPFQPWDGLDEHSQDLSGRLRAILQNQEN
# “And” between values parts separate entries of the source, which are not always exact repeats. Identical values can stand only once. The campaign covered roughly 260,000 compounds. About 1,500 (0.58%) were called active. The shares of active, inactive and inconclusive entries below differ from those in the screen.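 How the source made its calls: active means inhibition above a set limit at one or more doses, reproduced on every date tested; inconclusive means results disagree between test dates, or hit never tested in dose response; inactive means the rest.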
# Target: Virion infectivity factor (Human immunodeficiency virus type 1 group M subtype B (isolate BH10)) + Virion infectivity factor (Human immunodeficiency virus type 1 group M subtype B (isolate BRU/LAI)) + Virion infectivity factor (Human immunodeficiency virus type 1 group M subtype B (isolate PCV12)) + Virion infectivity factor (Human immunodeficiency virus type 1 group M subtype B (isolate HXB2)) + DNA dC->dU-editing enzyme APOBEC-3G (Homo sapiens) (UniProt P69720+P69721+P69722+P69723+Q9HC16)
# Assay: inhibitors of Vif binding to APOBEC3G peptide, primary screen, biochemical, TR-FRET, GST-Vif 1-94, biotin-A3G peptide, dose response retest (AID 1117319);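 further: Vif residues 1-94 fused to GST binding biotinylated APOBEC3G peptide 110-148; 0% = full assay without inhibitor and 100% = GST in place of GST-Vif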
# Conditions: stronger effect = higher value
row,Structure (SMILES),inhibition
1,CCCNC(=O)c1ccccc1NC(=O)c1ccccc1N(C)S(C)(=O)=O,inconclusive: 41%
2,Cn1c(=O)c(C(=O)COC(=O)c2cc(-c3ccco3)nc3ccccc23)c(N)n(Cc2ccccc2)c1=O,inconclusive: 61.6%
3,CCOc1ccc(Oc2cc(N)cc([N+](=O)[O-])c2)cc1,inconclusive: 40.6%
4,CCN(c1ccccc1)S(=O)(=O)c1ccc(NC(=O)c2ccco2)cc1,inconclusive: 46.4%
5,COc1ccc(C)cc1-n1c(C)cc(C=O)c1C,inactive: -0.15%
6,CCCn1c(SCC(=O)Nc2ccccc2N2CCOCC2)nc2c1c(=O)n(C)c(=O)n2C,inconclusive: 56.2%
7,COc1ccccc1N1CCN(C(=O)c2c(-c3ccccc3)noc2C)CC1,inconclusive: 42.2%
8,C/C(CC(=O)Nc1ccc(Cl)c(C(F)(F)F)c1)=N\NC(=O)c1cc2ccccc2cc1O,inconclusive: 63.7%
9,COc1ccc(CCNC(=O)C2CCCN(c3nn4c(=O)cc(C)nc4s3)C2)cc1OC (centres undefined),inconclusive: 36.3%
10,CCOC(=O)c1c(N2C(=O)CC(Sc3ccccc3C(=O)O)C2=O)sc(C)c1C (centres undefined),inconclusive: 35.5%
11,O=C(CCc1ccccc1)NC(NC(=S)Nc1ccc(Cl)cc1)C(Cl)(Cl)Cl (centres undefined),inconclusive: 46.1%
12,C=C(C)C(=O)Nc1cccc(C2=NOC3(C2)C[C@H](C(N)=O)N(C(=O)c2ccccc2)C3)c1 (some centres undefined),inconclusive: 49.5%
13,COc1ccc(OCC(=O)NNC(=O)c2cccnc2)cc1,inconclusive: 44.4%
14,O=C1N=C(N2CCOCC2)S/C1=C/c1cccs1,inactive: 1.92%
15,COc1ccc(-c2ccc3c(N)c(C(=O)NC(C)C)sc3n2)cc1OC,inconclusive: 36.9%
16,CC1(C)CC2(CC(c3ccccc3)c3ccc(O)cc3O2)NC(=S)N1 (centres undefined),inactive: 0.62%
17,Cc1cccc(-n2ncc3c(N4CC(C)CC(C)C4)ncnc32)c1 (centres undefined),inconclusive: 35%
18,COc1ccc(-c2cc(C(=O)N3CCN(c4ncccn4)CC3)c3ccccc3n2)c(OC)c1,inconclusive: 41.9%
19,O=C(c1ccco1)N(c1ccccn1)c1ccccn1,inactive: 3.18%
20,CCOC(=O)c1cnc2sc3c(n2c1=O)CCCC3,inconclusive: 37%
21,Cc1ccc(-c2c[n+](Cc3ccc(Cl)cc3)c3n2CCC3)cc1,inconclusive: 39.3%
22,COc1ccc(Nc2nc3ccccc3nc2C)cc1,inconclusive: 33.5%
23,CCCCN1Cc2c(nc3cc(-c4ccco4)[nH]n3c2=O)C1=O,inconclusive: 49.7%

row,Structure (SMILES),inhibition
1,Cc1csc(NC(=O)c2cc3ccccc3o2)n1,inactive: 0.57%
2,CCOC(=O)N1CCC(N2CCN(S(=O)(=O)c3ccc(C)cc3)CC2)CC1,inactive: 3.57%
3,Cc1cccc(NC(=O)c2cnn3ccccc23)c1C,inconclusive: 39.6%
4,COc1cc(/C=C(\C#N)C(=O)Nc2ccc3c(c2)OCCO3)ccc1O,inconclusive: 36.9%
5,COc1cc2c3c(c1)/C(=C1/SC(=S)NC1=O)C(=O)N3C(C)(C)C=C2C,inconclusive: 49.6%
6,O=C(Cc1cccs1)N1CCN=C1SCc1ccccc1Cl,inconclusive: 34.2%
7,Cc1ccc(C2C=C(c3ccc4c(c3)OCO4)Nc3ncnn32)cc1 (centres undefined),inconclusive: 40.8%
8,COc1ccc(OCCNC(=S)Nc2cccc3ccccc23)cc1,inactive: 2.41%
9,COc1ccc(-n2ccc(=O)c3c2CCCC3=O)cc1,inactive: 9%
10,Cn1c(=O)n(C)c(=O)n(CC(=O)N2CCCCC2)c1=O,inconclusive: 60.8%
11,Cc1cccc2cc(/C=C3\N=C(c4ccccc4)OC3=O)c(N3CCOCC3)nc12,inconclusive: 19.5%
12,Cc1cc(C)c(S(C)(=O)=O)c(Oc2ccc(F)cc2)n1,inconclusive: 36%
13,O=C1NN(c2ccccc2)C(=O)/C1=C/c1ccc(Sc2cccc3ccccc23)o1,inconclusive: 38.9%
14,C=C(C)Cn1c(-c2ccc(OC)cc2)nc2ccccc21,inconclusive: 37.8%
15,CCNC(=O)c1cc2c(=O)n3cccc(C)c3nc2n(Cc2ccc(C)cc2)c1=N,inconclusive: 45.6%
16,O=C(NCc1nnc(SCC(=O)N2CCCC2)o1)c1ccccc1,inconclusive: 40.1%
17,Cn1c(C2CC(=O)N(Cc3ccccc3)C2)nc2ccccc21 (centres undefined),inconclusive: 50.1%
18,Cc1nc2cccc(C(=O)Oc3ccc([N+](=O)[O-])cc3)c2o1,inconclusive: 37.5%
19,CNC(=O)c1[nH]cnc1C(=O)Nc1ccc(Cl)cc1,inconclusive: 33.7%
20,CCN(CC)S(=O)(=O)c1cccc(NC(=O)C2SC(=Nc3ccc(C)cc3C)C(C(=O)NCC3CCCO3)=C2N)c1 (centres undefined),inactive: 2.72%
21,CN1CCC(N(C)C(=O)COc2ccccc2Cl)CC1,inactive: -7.89%
22,CC1(C)Nc2ccccc2N(Cc2ccc([N+](=O)[O-])cc2)C1=O,inconclusive: 33.2%
23,CC(C)n1nnnc1SCC(=O)NCc1ccco1,inactive: 20%

row,Structure (SMILES),inhibition
1,Cc1nc2ccccn2c1-c1csc(NCc2ccco2)n1,inactive: 5.14%
2,Cc1ccnc(NS(=O)(=O)c2ccc(NC(=O)C3C4C=CC(C4)C3C(=O)O)cc2)n1 (centres undefined),inconclusive: 47.8%
3,O=C(CNC(=O)c1ccc(Oc2ccccc2)cc1)OC1CCCCC1=O (centres undefined),inconclusive: 57.6%
4,COc1cc(C(=O)NCCCCCC(=O)O)cc(OC)c1OC,inconclusive: 47.7%
5,CC1(C)Cc2c(cnn2-c2ccccc2)-c2c1c1ccccc1n2CC(O)CBr (centres undefined),inconclusive: 33.3%
6,CC(=O)c1ccc(N2CCC(C(=O)O)CC2)cc1,inactive: 6.29%
7,Cc1c(C(=O)NCCSCc2c(F)cccc2Cl)cnn1-c1ccc(F)cc1,inconclusive: 38.5%
8,NC(=O)[C@@H]1CC2(CC(c3cccc(NC(=O)COc4ccc(Cl)cc4)c3)=NO2)CN1C(=O)COc1ccc(Cl)cc1 (some centres undefined),inconclusive: 33.9%
9,Cc1ccc(Nc2nc(N)nc(CN3CCN(Cc4ccc5c(c4)OCO5)CC3)n2)cc1C,inactive: 3.16%
10,CN(C)S(=O)(=O)c1ccc(NC(=O)CCNC(=O)c2ccc([N+](=O)[O-])cc2)cc1,inconclusive: 39.1%
11,COc1cccc(NC(=O)COc2cccc(-n3cnnn3)c2)c1,inconclusive: 46.7%
12,Cc1ccc([N+](=O)[O-])cc1NC(=O)C1CCN(S(C)(=O)=O)CC1,inconclusive: 60%
13,COC(=O)C1=C(C)N(c2ccc(C)c(C)c2)/C(=C/c2ccco2)C1=O,inconclusive: 59.8%
14,N/C(=N\OC(=O)CSc1ccccc1)c1ccc([N+](=O)[O-])cc1,inconclusive: 46.1%
15,CC(C)n1cnc2cc(NCc3ccccn3)ccc21,inactive: 14.4%
16,O=C(CN1C(=O)c2ccccc2S1(=O)=O)NCCSC1CCCCC1,inconclusive: 48.5%
17,CCOC(=O)c1c(NS(=O)(=O)c2ccc(Br)cc2)sc2c1CCC2,inconclusive: 34.1%
18,COCCNC(=O)CN(C)S(=O)(=O)c1ccc(Br)cc1,inconclusive: 36.1%
19,O=C(CSc1nccc(=O)[nH]1)N1N=C2/C(=C/c3ccco3)CCCC2C1c1ccco1 (centres undefined),inconclusive: 51.9%
20,COc1cccc(-c2nnn(CC(=O)Nc3ccc(C)cc3C)n2)c1OC,inconclusive: 61.8%
21,COc1ccc(NC(=O)c2cc(S(=O)(=O)N3CCCCC3)ccc2N2CCCCC2)cn1,inactive: 5.2% and inactive: 0.78%
22,C=CCn1c(C)cc(C2=NNC(=NC(C)(C)C)SC2)c1C,inconclusive: 54.6%
23,OC1(CNCc2cn[nH]c2-c2cc3ccccc3o2)CCCCC1,inconclusive: 52.4%

row,Structure (SMILES),inhibition
1,CCOC(=O)C1=C(O)/C(=C\c2ccc(CNC(=O)C(=O)Nc3ccc(C)c(C)c3)o2)N=C1C,inconclusive: 33.4%
2,c1ccc2c(c1)Oc1cccc3cccc-2c13,inconclusive: 49%
3,COc1cc(NC(=S)NCc2ccco2)cc(OC)c1,inconclusive: 38.1%
4,Cn1c(SCc2ccc(F)cc2)nnc1-c1cnccn1,inconclusive: 39.5%
5,Cc1ncsc1CCSc1nc2ccccc2c(=O)n1C,inactive: -1.02%
6,O=C(O)CC(NC(=O)COc1ccc(Cl)cc1Cl)C(=O)O (centres undefined),inconclusive: 43.5%
7,CCCc1nc2oc3cc(OC)ccc3c(=O)c2c(=O)n1Cc1ccco1,inconclusive: 47.4%
8,O=C(O)/C=C\C(=O)Nc1ccc(N2CCN(c3ccc(F)cc3)CC2)cc1,inconclusive: 46.5%
9,c1cnc(-c2nnc3n2CCCCC3)cn1,inconclusive: 37.4%
10,CC1CCC(NC(=O)CC(C)(C)Cc2nc3ccccc3c(=O)[nH]2)CC1 (centres undefined),inconclusive: 33.2%
11,Cc1cccc(C)c1NC(=O)CN(C)CC(=O)Nc1cc(Cl)ccc1C#N,inconclusive: 36.5%
12,O=C(NCc1ccco1)C(=O)NCC1OCCN1S(=O)(=O)c1ccccc1 (centres undefined),inconclusive: 39%
13,C/C(=N\NC(=O)CNC(=O)c1ccc2c(c1)OCO2)c1ccco1,inconclusive: 49.5%
14,Cc1cc(C)c[n+](C2=C([O-])c3ccccc3C(=O)/C2=N\S(=O)(=O)c2cccs2)c1,inconclusive: 41.7%
15,O=C(CCN1C(=O)C2CCCCC2C1=O)Nc1cc([N+](=O)[O-])ccc1Cl (centres undefined),inconclusive: 53.8%
16,O=C(c1ccccc1)N1CCCc2ccccc21,inactive: 16.3%
17,CC1C/C(=C/c2cccs2)C(=O)/C(=C/c2cccs2)C1 (centres undefined),inconclusive: 42.4%
18,NC(=O)c1nnn(-c2ccc([N+](=O)[O-])cc2)c1-c1ccccc1,inconclusive: 36.2%
19,COc1cc(C(=O)NNC(=O)c2ccoc2C)cc(OC)c1OC,inconclusive: 64.5%
20,COc1ccccc1Nc1nc(N)nc(CSC(=S)N2CCN(c3ccccc3)CC2)n1,inconclusive: 50.5%
